# Data as given in US8822168B2, “Assays for detecting small nuclear ribonucleoprotein particle assembly and survival of motor neurons activity” (The Trustees of the University of Pennsylvania, priority 2005, dated 2014).
# At least one compound was matched to its structure with a doubt left.
# System: SMN complex
# Assay: high-throughput 384-well SMN complex activity / snRNP assembly assay
# Format: biochemical
# Details: test compound added to labeled RNA, cell extract and ATP; identified inhibitors, FIG. 10
smiles,measurement,value
COc1ccc2c(c[n+](C)c3c4cc5c(cc4ccc23)OCO5)c1OC [chelerythrine chloride],formation of an RNA binding protein-RNA complex,inhibits the formation of an RNA binding protein-RNA complex
